Results are given in words; binding and its absence hold for the method and conditions named. Some results given as binding are weak or reduced against the parent protein; the word gives no strength.
Tests used:
[1] = molecular target: T1, human SIRPA expressed on cells (human, UniProt P78324 31-504); test: flow cytometry on CHO-huSIRPA cells
[2] = molecular target: T1, human SIRPA expressed on cells; test: flow cytometry on primary human macrophages
[3] = molecular target: T1, human SIRPA expressed on cells; test: FACS of peripheral blood cells of huSIRPA-tg mice dosed with 10 mg/kg 3F9
[4] = molecular target: human SIRPA-DAP12 chimera expressed on BWZ/NFAT-luciferase reporter cells (human) (UniProt O43914); test: flow cytometry on BWZ-Human SIRPA cells, titrated antibody detected with anti-mouse IgG APC (Relative MFI)
[5] = molecular target: T1, human SIRPA expressed on cells; test: FACS of blood and spleen cells of dosed huSIRPA-tg mice
[6] = molecular target: T1, human SIRPA expressed on cells; test: cell-based binding assay (FIG. 15B)

Amino acid sequences for entries named in this document (tags omitted). A change or cut given only in a name is not applied to a line headed by its entry.
UniProt P78324: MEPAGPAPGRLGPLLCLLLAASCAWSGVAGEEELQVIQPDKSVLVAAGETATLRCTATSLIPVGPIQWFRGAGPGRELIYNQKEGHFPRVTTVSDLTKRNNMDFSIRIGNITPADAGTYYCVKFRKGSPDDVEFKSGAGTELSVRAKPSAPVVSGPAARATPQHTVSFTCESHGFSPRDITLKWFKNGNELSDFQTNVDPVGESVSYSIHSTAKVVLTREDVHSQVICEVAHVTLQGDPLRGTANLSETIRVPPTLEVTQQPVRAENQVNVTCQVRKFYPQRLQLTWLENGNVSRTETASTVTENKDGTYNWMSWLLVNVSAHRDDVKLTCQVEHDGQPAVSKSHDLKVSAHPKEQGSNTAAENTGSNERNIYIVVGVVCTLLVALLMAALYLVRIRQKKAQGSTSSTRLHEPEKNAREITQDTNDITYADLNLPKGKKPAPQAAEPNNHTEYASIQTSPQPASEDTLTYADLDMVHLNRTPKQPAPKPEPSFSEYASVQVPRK

Measured: binding

B1: 9C2 (antibody, IgG1, V domains shown)
VH: EFQLQQSGAELVKPGASVKISCKASGYSLTGYNMNWVKQSRGKSLEWIGNINPHYGSSTYNQNFKDKATLTVDKSSSAAYMQFNSLTSEDSAVYYCAREGYDGVFDYWGQGTTLTVSS
VL: QIVLSQSPAILSASPGEKVTMTCRASSSVSYMHWYQQKPGSSPKPWIYVTSNLASGVPTRFSGSGSGTSYSLTISRVEAEDAATYYCQQWSSNPRTFGGGTKLEIK
notes: also called anti-SIRPA antibody 9C2; 9C2-DyLight 650
binds: [1] | [2]

B2: 3F9 (antibody, IgG1, V domains shown)
VH: EVKLVESGGGLVKPGGSLKLSCAASGFTFSSYAMSWVRQTPEKRLEWVATISDYGGSYTYYPDSVKGRFTISRDNAKYTLYLQMSSLRSEDTALYYCARPPYDDYYGGFAYWGQGTLVTVSA
VL: DIVLTQSPASLAVSLGQRATISCRASKSVSSSGYSYMHWYQQKPGQPPKLLIYLASNLESGVPARFSGSGSGTDFTLNIHPVEEEDAATYYCQHNRELPCTFGGGTKLEIK
notes: also called anti-SIRPA antibody 3F9; glycosylated 3F9
binds: [3] | [1] | [2] | [4] | [5] | [6]

From patent US20250144209A1 (Alector, published 2025)
